The values that follow come from US20110039808A1, “Multitarget Compounds Active at a PPAR and Cannabinoid Receptor” (priority 2007, published 2011).

By UniProt entry, the sequences of proteins in these tests, tags left out.
UniProt P37231, whole entry: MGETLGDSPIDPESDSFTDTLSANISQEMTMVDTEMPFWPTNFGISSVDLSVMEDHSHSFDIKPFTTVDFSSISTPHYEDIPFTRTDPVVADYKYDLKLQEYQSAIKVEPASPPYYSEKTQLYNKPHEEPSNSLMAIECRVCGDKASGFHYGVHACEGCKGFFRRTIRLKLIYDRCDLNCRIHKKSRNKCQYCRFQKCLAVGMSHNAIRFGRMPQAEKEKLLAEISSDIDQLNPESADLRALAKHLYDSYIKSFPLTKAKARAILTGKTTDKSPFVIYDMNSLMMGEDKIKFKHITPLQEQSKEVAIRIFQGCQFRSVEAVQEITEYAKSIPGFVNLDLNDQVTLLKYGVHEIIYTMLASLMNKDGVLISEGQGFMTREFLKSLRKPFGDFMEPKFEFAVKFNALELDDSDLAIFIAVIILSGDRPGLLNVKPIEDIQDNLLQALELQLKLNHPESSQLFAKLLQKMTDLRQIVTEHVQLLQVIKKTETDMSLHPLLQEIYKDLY

Structures were worked out from names or drawings and are uncertain.

The assay has as its target PPAR-γ receptor (Homo sapiens, UniProt P37231). Conditions: read-out: EC50 PPAR-γ cell free; average EC50 determined in duplicate, FIGS. 12 and 13.

Turning to `CCCCCOc1c(OC)ccc2cc(C(=O)NCc3ccc(C(=O)O)c(O)c3)c(=O)[nH]c12`, the EC50 (usually the concentration needed to bring the measured effect to its halfway point) was determined as 7.15 µM.

As to `CCCCCOc1c(OC)ccc2cc(C(=O)NCc3ccc(O)c(C(=O)O)c3)c(=O)[nH]c12`, the EC50 came out at 7.75 µM.
